# Some of the results follow.
# Chains of the proteins cited; added tags and fusions are not shown. Lines headed by an entry give the natural chain unless they say otherwise; changes in a name come on top.
# UniProt Q99547: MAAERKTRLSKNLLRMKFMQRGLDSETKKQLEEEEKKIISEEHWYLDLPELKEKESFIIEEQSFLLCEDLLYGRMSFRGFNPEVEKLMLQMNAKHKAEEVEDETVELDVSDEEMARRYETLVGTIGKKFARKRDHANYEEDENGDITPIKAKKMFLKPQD
# UniProt P51948: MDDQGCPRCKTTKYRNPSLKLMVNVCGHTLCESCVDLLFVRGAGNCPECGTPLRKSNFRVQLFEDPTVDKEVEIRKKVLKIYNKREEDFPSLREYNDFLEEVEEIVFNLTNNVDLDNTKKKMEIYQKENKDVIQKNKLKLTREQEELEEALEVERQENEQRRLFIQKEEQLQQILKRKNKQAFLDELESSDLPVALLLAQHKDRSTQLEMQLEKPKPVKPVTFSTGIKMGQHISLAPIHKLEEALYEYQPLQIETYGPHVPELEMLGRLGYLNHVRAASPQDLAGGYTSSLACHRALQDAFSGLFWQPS
# UniProt Q8N108: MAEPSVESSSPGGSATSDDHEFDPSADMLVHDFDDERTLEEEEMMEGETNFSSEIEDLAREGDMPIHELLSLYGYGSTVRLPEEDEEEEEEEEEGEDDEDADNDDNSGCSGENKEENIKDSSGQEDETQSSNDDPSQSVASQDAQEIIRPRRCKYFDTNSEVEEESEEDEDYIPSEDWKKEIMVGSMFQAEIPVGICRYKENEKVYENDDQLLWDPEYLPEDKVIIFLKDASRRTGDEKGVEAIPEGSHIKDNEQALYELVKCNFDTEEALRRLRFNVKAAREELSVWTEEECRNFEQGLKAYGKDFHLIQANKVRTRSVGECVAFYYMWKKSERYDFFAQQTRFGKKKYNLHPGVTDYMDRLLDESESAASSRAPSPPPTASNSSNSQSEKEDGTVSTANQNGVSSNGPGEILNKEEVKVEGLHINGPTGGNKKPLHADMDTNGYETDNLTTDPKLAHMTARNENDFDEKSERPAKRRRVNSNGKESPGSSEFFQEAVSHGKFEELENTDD
# UniProt Q00013: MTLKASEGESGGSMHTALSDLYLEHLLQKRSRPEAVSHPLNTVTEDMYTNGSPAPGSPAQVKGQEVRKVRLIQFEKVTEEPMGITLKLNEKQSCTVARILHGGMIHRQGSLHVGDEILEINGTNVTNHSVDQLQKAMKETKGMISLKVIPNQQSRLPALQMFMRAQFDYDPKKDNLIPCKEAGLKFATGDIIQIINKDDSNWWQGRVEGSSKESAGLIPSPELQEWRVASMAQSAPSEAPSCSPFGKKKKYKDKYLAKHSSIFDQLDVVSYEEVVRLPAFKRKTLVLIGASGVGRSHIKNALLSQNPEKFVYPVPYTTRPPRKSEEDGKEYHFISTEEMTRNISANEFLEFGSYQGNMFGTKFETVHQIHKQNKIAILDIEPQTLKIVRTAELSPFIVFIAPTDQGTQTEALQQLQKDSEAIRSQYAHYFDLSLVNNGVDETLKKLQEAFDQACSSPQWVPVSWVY
# UniProt Q9BWT6: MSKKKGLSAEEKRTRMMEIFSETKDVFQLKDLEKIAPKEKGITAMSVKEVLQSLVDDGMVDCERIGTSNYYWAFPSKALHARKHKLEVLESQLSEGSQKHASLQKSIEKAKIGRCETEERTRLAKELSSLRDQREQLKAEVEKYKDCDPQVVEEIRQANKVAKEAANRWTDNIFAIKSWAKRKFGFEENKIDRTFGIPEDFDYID
# UniProt Q6NTE8: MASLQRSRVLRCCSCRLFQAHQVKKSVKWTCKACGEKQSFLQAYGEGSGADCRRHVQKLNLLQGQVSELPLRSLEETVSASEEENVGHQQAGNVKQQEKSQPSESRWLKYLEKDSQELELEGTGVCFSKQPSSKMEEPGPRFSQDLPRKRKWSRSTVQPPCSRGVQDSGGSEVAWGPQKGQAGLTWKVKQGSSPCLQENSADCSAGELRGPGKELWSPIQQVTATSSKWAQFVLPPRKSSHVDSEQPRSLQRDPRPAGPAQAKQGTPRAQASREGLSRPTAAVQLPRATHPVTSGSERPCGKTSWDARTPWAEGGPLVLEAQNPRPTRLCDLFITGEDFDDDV
# UniProt Q9UH92: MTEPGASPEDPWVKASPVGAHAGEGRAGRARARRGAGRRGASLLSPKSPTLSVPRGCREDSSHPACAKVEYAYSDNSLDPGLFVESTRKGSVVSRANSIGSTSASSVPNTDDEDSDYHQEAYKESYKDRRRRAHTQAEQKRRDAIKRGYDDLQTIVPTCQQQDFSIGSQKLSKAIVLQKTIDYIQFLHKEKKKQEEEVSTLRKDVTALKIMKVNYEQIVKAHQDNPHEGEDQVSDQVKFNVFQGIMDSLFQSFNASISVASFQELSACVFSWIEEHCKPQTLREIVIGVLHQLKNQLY
# UniProt Q5XKP0: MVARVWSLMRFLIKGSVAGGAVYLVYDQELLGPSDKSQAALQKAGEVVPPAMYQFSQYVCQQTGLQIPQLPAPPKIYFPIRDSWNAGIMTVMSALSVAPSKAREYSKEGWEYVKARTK
# UniProt Q14149: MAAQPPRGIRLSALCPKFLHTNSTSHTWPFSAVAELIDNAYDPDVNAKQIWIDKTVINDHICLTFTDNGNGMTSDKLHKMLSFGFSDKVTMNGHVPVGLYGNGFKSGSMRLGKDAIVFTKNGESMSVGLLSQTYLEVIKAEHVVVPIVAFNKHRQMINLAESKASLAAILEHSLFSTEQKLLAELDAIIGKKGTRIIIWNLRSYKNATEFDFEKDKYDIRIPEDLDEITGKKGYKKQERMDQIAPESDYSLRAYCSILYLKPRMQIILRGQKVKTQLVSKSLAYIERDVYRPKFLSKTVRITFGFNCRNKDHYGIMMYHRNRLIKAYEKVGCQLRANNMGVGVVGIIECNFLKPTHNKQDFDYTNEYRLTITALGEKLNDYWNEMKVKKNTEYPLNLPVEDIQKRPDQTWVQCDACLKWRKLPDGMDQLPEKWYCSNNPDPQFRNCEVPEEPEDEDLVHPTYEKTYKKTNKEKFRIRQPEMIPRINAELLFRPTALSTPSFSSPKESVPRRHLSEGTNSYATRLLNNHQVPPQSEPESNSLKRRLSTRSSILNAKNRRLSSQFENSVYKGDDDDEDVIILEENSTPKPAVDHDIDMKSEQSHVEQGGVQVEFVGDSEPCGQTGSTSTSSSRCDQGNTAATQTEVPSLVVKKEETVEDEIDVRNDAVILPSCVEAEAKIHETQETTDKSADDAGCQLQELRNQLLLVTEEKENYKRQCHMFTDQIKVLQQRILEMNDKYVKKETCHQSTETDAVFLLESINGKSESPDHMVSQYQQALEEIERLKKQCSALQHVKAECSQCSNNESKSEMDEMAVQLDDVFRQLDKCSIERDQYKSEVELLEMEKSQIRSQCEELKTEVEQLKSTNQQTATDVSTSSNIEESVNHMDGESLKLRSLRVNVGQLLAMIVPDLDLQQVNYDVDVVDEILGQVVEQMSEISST
# UniProt Q96T76: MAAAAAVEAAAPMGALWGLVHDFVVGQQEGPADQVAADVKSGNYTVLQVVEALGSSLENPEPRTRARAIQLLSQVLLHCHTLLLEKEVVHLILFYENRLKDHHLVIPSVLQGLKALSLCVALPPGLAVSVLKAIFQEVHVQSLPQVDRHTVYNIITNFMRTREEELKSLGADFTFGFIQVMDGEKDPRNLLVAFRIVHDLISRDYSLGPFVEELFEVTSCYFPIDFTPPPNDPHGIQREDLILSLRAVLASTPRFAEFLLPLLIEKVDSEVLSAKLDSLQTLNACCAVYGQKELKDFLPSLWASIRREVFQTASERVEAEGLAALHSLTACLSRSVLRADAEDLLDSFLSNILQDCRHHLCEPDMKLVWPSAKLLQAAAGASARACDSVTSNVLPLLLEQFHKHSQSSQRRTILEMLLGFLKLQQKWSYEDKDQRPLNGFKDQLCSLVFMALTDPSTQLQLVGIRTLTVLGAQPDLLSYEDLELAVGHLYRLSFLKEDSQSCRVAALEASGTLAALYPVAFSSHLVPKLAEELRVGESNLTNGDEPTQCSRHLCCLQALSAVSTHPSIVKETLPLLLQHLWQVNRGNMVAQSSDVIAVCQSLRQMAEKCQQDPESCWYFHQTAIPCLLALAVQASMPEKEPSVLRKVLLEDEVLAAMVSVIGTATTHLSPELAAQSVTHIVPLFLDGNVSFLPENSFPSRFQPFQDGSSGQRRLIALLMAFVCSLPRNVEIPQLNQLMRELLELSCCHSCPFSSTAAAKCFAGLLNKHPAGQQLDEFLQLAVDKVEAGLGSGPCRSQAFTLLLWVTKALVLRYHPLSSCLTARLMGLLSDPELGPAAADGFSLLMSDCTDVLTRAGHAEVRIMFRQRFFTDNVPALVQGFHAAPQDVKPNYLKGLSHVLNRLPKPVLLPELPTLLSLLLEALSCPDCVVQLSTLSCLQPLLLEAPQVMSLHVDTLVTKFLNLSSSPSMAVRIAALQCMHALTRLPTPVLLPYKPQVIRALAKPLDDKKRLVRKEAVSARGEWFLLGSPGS
# UniProt Q15014, whole entry, looked up: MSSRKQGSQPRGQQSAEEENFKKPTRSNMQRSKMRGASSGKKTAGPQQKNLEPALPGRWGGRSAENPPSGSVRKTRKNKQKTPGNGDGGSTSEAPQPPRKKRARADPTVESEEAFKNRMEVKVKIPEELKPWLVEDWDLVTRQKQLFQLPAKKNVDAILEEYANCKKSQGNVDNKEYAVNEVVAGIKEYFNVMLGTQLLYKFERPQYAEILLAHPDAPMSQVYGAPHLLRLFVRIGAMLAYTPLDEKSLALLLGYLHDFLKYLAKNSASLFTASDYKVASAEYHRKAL
# UniProt P39210: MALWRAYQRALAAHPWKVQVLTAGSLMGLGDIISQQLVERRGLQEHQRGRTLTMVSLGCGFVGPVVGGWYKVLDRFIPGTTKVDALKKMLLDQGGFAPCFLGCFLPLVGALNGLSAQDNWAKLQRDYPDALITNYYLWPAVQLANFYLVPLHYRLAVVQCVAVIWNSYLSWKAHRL
# UniProt Q5TGZ0: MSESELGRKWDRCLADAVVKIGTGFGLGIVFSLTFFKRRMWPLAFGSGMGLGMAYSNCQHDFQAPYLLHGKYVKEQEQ
# UniProt Q9BUB5: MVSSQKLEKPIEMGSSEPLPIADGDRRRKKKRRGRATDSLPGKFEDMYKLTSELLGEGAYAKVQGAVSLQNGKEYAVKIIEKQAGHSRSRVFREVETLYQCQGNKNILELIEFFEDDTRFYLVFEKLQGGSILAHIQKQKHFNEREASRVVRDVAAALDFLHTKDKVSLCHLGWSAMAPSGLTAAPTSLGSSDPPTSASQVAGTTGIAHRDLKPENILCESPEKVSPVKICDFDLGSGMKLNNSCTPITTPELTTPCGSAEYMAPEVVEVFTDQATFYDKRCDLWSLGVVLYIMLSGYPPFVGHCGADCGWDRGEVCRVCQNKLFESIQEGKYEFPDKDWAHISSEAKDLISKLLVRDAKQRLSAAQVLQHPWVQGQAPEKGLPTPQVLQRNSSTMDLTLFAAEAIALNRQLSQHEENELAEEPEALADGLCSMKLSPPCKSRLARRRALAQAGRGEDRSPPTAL
# UniProt Q9H081: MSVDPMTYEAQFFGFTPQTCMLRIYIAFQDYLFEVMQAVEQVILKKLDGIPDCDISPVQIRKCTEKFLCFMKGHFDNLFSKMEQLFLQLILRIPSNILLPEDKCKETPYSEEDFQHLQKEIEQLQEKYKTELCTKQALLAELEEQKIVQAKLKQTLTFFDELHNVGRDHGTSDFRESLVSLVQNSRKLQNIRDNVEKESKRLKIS
# UniProt P14174: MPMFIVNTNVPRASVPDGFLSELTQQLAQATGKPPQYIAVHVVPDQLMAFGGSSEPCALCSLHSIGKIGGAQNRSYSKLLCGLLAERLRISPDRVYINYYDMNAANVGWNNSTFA
# UniProt Q8WV92, whole entry, looked up: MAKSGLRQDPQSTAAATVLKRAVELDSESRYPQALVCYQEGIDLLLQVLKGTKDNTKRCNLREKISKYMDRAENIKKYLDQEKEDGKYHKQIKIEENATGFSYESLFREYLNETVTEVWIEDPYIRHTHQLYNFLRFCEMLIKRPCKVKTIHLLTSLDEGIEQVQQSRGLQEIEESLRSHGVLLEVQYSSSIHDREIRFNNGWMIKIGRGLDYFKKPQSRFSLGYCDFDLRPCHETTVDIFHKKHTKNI
# UniProt Q6IN84: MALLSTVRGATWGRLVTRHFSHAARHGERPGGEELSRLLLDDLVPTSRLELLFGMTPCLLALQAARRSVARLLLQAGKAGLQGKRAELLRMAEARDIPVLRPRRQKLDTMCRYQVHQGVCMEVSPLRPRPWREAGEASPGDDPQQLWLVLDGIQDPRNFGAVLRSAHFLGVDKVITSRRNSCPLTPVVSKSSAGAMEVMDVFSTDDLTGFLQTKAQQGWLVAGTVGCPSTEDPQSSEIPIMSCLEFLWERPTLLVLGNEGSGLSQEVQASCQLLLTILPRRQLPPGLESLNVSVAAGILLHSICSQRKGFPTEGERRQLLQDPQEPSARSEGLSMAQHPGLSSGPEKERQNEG
# UniProt Q8N4V1: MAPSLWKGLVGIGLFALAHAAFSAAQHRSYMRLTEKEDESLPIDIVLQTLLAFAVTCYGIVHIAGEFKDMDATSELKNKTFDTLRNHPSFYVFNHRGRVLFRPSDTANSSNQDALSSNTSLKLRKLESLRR
# Key:
# Test in all cases: log2 fold change, soluble protein after heating vs DMSO (PISA); higher = thermal stabilisation; K562 cells, 10 uM, 30 min; active = over 0.2 and 3.5 SD of the protein, either way, in both replicates (recomputed)
# [1] = compound: CC[C@@H]1C(=O)N(C)c2cnc(Nc3ccc(C(=O)NC4CCN(C)CC4)cc3OC)nc2N1C1CCCC1
# In short: (§1)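 Aliquots of K562 cells (2×10^6 cells/mL) treated with 10 μM compound for 30 min were heated for 3 min over 48°C-58°C. After pooling and extraction in PBS with 0.5% NP-40 at 4°C, soluble protein from a 21,000xg, 90 min spin was quantified by TMTpro 16plex LC-MS/MS with channel sums equalised. Thermal stability is expressed against control samples, from duplicates, as a log2 fold change.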
# volasertib = compound: CC[C@@H]1C(=O)N(C)c2cnc(Nc3ccc(C(=O)N[C@H]4CC[C@H](N5CCN(CC6CC6)CC5)CC4)cc3OC)nc2N1C(C)C [volasertib]
# In short: as §1
# [2] = compound: CC[C@H](C)N1C=C(C2=C(C=C(C=C21)C3=CN=C(C=C3)N4CCNCC4)C(=O)NCC5=C(C=C(NC5=O)C)C)C
# In short: as §1
# epoxomicin = compound: CC[C@H](C)[C@@H](C(=O)N[C@@H]([C@@H](C)O)C(=O)N[C@@H](CC(C)C)C(=O)[C@]1(CO1)C)NC(=O)[C@H]([C@@H](C)CC)N(C)C(=O)C [epoxomicin]
# In short: as §1
# [3] = compound: CCn1c(C(=O)N(C2CC2)C2CC2)cc2c3c(ncn3C)c(Nc3cc(C)n(C)n3)nc21
# In short: as §1
# [4] = compound: CCn1cc(-c2ccnc3[nH]c(-c4cccc(CN(C)C)c4)cc23)c(-c2ccc(NC(=O)N(C)C)cc2)n1
# In short: as §1
# [5] = compound: CN(C)CC(=O)Nc1ccc2[nH]c(=O)c3ccccc3c2c1
# In short: as §1
# rosiglitazone = compound: CN(CCOC1=CC=C(C=C1)C[C@H]2C(=O)NC(=O)S2)C3=CC=CC=N3 (racemic) [rosiglitazone]
# In short: as §1
# [6] = compound: CN1C2=C(C3=C1C(=O)N(N=C3)CC4=CC(=CC=C4)N)SC(=C2)S(=O)C
# In short: as §1
# [7] = compound: CN1CCC(CNc2ccc3ncc(-c4cccc(OC(F)(F)F)c4)n3n2)CC1
# In short: as §1
Target,log2 fold change [1],log2 fold change (volasertib),log2 fold change [2],log2 fold change (epoxomicin),log2 fold change [3],log2 fold change [4],log2 fold change [5],log2 fold change (rosiglitazone),log2 fold change [6],log2 fold change [7]
MPHOSPH6 (UniProt Q99547),inactive: 0.109,inactive: -0.129,inactive: -0.04,inactive: -0.108,inactive: 0.011,inactive: 0.042,inactive: -0.063,inactive: -0.05,inactive: 0.104,inactive: 0.054
MNAT1 (UniProt P51948),inactive: 0.029,inactive: -0.027,inactive: -0.029,inactive: -0.057,–,inactive: 0.015,inactive: 0.032,–,inactive: -0.011,inactive: 0.015
MIER1 isoform 12 (UniProt Q8N108),inactive: -0.032,inactive: -0.102,inactive: 0.066,inactive: 0.02,–,inactive: -0.095,inactive: -0.033,–,inactive: -0.077,inactive: -0.107
MPP1 (UniProt Q00013),inactive: -0.039,inactive: -0.112,inactive: 0.063,inactive: 0.058,–,inactive: -0.051,inactive: 0.011,–,inactive: 0.043,active: -0.256
MRPL50 (UniProt Q8N5N7),inactive: 0.026,inactive: -0.029,inactive: -0.063,inactive: 0.094,–,inactive: -0.044,inactive: 0.037,–,inactive: -0.043,inactive: 0.308
MON2 isoform 5 (UniProt Q7Z3U7),inactive: -0.125,active: -0.377,inactive: 0.06,inactive: 0.023,–,inactive: -0.028,inactive: 0.031,–,inactive: -0.064,inactive: -0.158
MND1 (UniProt Q9BWT6),inactive: -0.081,inactive: -0.175,inactive: -0.036,inactive: 0.049,–,inactive: -0.076,inactive: -0.015,–,inactive: 0.04,active: -0.468
MRNIP (UniProt Q6NTE8),inactive: -0.07,inactive: -0.045,inactive: -0.344,inactive: 0.019,inactive: 0.026,inactive: 0.209,inactive: -0.105,–,–,inactive: 0.005
MLX (UniProt Q9UH92),inactive: 0.047,active: -0.734,inactive: -0.007,inactive: 0.162,–,inactive: 0,–,–,inactive: 0.142,inactive: -0.315
MICOS13 (UniProt Q5XKP0),inactive: -0.132,inactive: -0.181,inactive: 0.025,inactive: 0.023,–,inactive: -0.043,inactive: 0.026,–,inactive: -0.044,active: -0.579
MICALL2 (UniProt Q8IY33),inactive: -0.079,inactive: -0.056,inactive: 0.084,inactive: 0.099,inactive: -0.046,inactive: -0.071,inactive: 0.097,inactive: 0.122,inactive: -0.009,inactive: -0.059
MORC3 (UniProt Q14149),inactive: -0.141,active: -0.509,inactive: 0.086,inactive: 0.125,–,inactive: -0.027,inactive: 0.071,–,inactive: -0.058,inactive: -0.017
MMS19 isoform 8 (UniProt Q96T76),inactive: -0.102,active: -0.43,inactive: 0.075,inactive: 0.013,–,inactive: -0.052,inactive: 0.11,–,inactive: 0.051,inactive: -0.085
MORF4L2 (UniProt Q15014),inactive: 0.074,inactive: 0.023,inactive: 0.014,inactive: 0.085,–,inactive: 0.075,inactive: -0.125,–,inactive: 0.12,inactive: 0.076
MKRN3 (UniProt Q13064),inactive: 0.02,inactive: -0.112,inactive: -0.076,inactive: -0.116,inactive: -0.087,–,inactive: -0.153,–,inactive: 0.137,–
MRPL46 (UniProt Q9H2W6),inactive: 0.209,inactive: 0.302,inactive: 0.034,inactive: 0.015,–,inactive: -0.04,inactive: 0.014,–,inactive: 0.061,inactive: 0.12
MPV17 (UniProt P39210),inactive: 0.156,inactive: 0.016,inactive: -0.124,inactive: 0.177,inactive: 0.1,inactive: -0.081,–,inactive: 0,–,inactive: 0.119

Target,log2 fold change [1],log2 fold change (volasertib),log2 fold change [2],log2 fold change (epoxomicin),log2 fold change [3],log2 fold change [4],log2 fold change [5],log2 fold change (rosiglitazone),log2 fold change [6],log2 fold change [7]
MICOS10 (UniProt Q5TGZ0),inactive: 0.001,inactive: -0.312,inactive: -0.175,inactive: 0.103,inactive: 0.061,inactive: -0.02,inactive: -0.014,inactive: 0.034,–,inactive: -0.078
MIEF1 (UniProt L0R8F8),inactive: -0.028,inactive: -0.076,inactive: -0.106,inactive: 0.022,–,inactive: -0.065,inactive: -0.018,–,inactive: -0.028,inactive: -0.021
MRPL47 (UniProt Q9HD33),inactive: 0.094,inactive: -0.038,inactive: 0.044,inactive: 0.061,–,inactive: 0.235,inactive: -0.036,–,inactive: 0.071,inactive: -0.325
MKNK1 (UniProt Q9BUB5),inactive: -0.148,inactive: -0.183,inactive: -0.025,inactive: 0.018,–,inactive: -0.101,inactive: 0.009,–,inactive: -0.095,inactive: -0.006
MKRN2 (UniProt Q9H000),inactive: -0.08,active: -0.633,inactive: 0.106,inactive: -0.068,–,inactive: 0.193,inactive: 0.126,–,inactive: 0.152,inactive: 0.082
MIS12 (UniProt Q9H081),inactive: -0.072,active: -0.36,inactive: 0.012,inactive: 0.026,–,inactive: -0.007,inactive: 0.055,–,inactive: -0.107,inactive: -0.039
MON1A (UniProt Q86VX9),inactive: -0.11,inactive: -0.012,inactive: -0.141,inactive: -0.101,–,inactive: 0.003,–,–,inactive: 0.032,inactive: -0.041
MINK1 (UniProt Q8N4C8),inactive: -0.01,inactive: -0.149,inactive: 0.056,inactive: -0.009,–,inactive: -0.069,inactive: -0.035,–,inactive: -0.004,inactive: -0.137
MIF (UniProt P14174),inactive: 0.025,inactive: 0.021,inactive: -0.096,active: 0.454,–,inactive: 0.081,inactive: 0.025,–,inactive: -0.038,inactive: 0.211
MITD1 (UniProt Q8WV92),inactive: -0.16,inactive: -0.266,inactive: 0.077,inactive: 0.147,–,inactive: 0.057,inactive: 0.049,–,inactive: 0.079,inactive: -0.365
MRPL34 (UniProt Q9BQ48),inactive: 0.061,inactive: 0.029,inactive: -0.007,inactive: -0.042,–,inactive: 0.109,inactive: -0.065,–,inactive: 0.232,inactive: 0.048
MRPL33 (UniProt O75394),inactive: 0.138,inactive: 0.168,inactive: 0.144,inactive: -0.174,inactive: -0.015,–,inactive: 0.066,inactive: 0.074,inactive: -0.07,–
MRM1 (UniProt Q6IN84),inactive: 0.193,inactive: 0.138,inactive: -0.033,inactive: -0.156,inactive: 0.052,–,inactive: -0.046,inactive: -0.054,inactive: 0.19,–
MMGT1 (UniProt Q8N4V1),–,inactive: -0.011,inactive: 0.009,inactive: 0.032,inactive: 0.023,–,inactive: -0.035,inactive: -0.002,inactive: -0.044,–
MOB2 isoform 3 (UniProt Q70IA6),–,inactive: -0.231,inactive: 0.207,inactive: -0.193,–,inactive: -0.029,–,–,–,inactive: -0.103
MINDY2 (UniProt Q8NBR6),–,–,–,inactive: -0.012,inactive: -0.3,–,–,–,–,–
MRPL52 (UniProt Q86TS9),inactive: 0.099,–,–,–,–,–,–,–,inactive: -0.308,–
